These are yes or no findings as the source states them, for the method shown. In cells and extracts the contact can be indirect. Some binding calls cover weakened binding; strength is not graded here. For some assays here: Where a sequence is shown, tags or fusion partners need not be part of it.
B1: endogenous Necl-4 (protein, UniProt Q8NFZ8 21-388)
chain: PGAGQEVQTENVTVAEGGVAEITCRLHQYDGSIVVIQNPARQTLFFNGTRALKDERFQLEEFSPRRVRIRLSDARLEDEGGYFCQLYTEDTHHQIATLTVLVAPENPVVEVREQAVEGGEVELSCLVPRSRPAATLRWYRDRKELKGVSSSQENGKVWSVASTVRFRVDRKDDGGIIICEAQNQALPSGHSKQTQYVLDVQYSPTARIHASQAVVREGDTLVLTCAVTGNPRPNQIRWNRGNESLPERAEAVGETLTLPGLVSADNGTYTCEASNKHGHARALYVLVVYDPGAVVEAQTSVPYAIVGGILALLVFLIICVLVGMVWCSVRQKGSYLTHEASGLDEQGEAREAFLNGSDGHKRKEEFFI
B2: vascular endothelial cadherin (VE-cadherin) (protein, UniProt P33151 48-784)
chain: DWIWNQMHIDEEKNTSLPHHVGKIKSSVSRKNAKYLLKGEYVGKVFRVDAETGDVFAIERLDRENISEYHLTAVIVDKDTGENLETPSSFTIKVHDVNDNWPVFTHRLFNASVPESSAVGTSVISVTAVDADDPTVGDHASVMYQILKGKEYFAIDNSGRIITITKSLDREKQARYEIVVEARDAQGLRGDSGTATVLVTLQDINDNFPFFTQTKYTFVVPEDTRVGTSVGSLFVEDPDEPQNRMTKYSILRGDYQDAFTIETNPAHNEGIIKPMKPLDYEYIQQYSFIVEATDPTIDLRYMSPPAGNRAQVIINITDVDEPPIFQQPFYHFQLKENQKKPLIGTVLAMDPDAARHSIGYSIRRTSDKGQFFRVTKKGDIYNEKELDREVYPWYNLTVEAKELDSTGTPTGKESIVQVHIEVLDENDNAPEFAKPYQPKVCENAVHGQLVLQISAIDKDITPRNVKFKFILNTENNFTLTDNHDNTANITVKYGQFDREHTKVHFLPVVISDNGMPSRTGTSTLTVAVCKCNEQGEFTFCEDMAAQVGVSIQAVVAILLCILTITVITLLIFLRRRLRKQARAHGKSVPEIHEQLVTYDEEGGGEMDTTSYDVSVLNSVRRGGAKPPRPALDARPSLYAQVQKPPRHAPGAHGGPGEMAAMIEVKKDEADHDGDGPPYDTLHIYGYEGSESIAESLSSLGTDSSDSDVDYDFLNDWGPRFKMLAELYGSDPREELLY

By UniProt entry, the sequences of proteins in these tests, tags left out. Residues count along the entry.
UniProt P35968, residues 20-1356: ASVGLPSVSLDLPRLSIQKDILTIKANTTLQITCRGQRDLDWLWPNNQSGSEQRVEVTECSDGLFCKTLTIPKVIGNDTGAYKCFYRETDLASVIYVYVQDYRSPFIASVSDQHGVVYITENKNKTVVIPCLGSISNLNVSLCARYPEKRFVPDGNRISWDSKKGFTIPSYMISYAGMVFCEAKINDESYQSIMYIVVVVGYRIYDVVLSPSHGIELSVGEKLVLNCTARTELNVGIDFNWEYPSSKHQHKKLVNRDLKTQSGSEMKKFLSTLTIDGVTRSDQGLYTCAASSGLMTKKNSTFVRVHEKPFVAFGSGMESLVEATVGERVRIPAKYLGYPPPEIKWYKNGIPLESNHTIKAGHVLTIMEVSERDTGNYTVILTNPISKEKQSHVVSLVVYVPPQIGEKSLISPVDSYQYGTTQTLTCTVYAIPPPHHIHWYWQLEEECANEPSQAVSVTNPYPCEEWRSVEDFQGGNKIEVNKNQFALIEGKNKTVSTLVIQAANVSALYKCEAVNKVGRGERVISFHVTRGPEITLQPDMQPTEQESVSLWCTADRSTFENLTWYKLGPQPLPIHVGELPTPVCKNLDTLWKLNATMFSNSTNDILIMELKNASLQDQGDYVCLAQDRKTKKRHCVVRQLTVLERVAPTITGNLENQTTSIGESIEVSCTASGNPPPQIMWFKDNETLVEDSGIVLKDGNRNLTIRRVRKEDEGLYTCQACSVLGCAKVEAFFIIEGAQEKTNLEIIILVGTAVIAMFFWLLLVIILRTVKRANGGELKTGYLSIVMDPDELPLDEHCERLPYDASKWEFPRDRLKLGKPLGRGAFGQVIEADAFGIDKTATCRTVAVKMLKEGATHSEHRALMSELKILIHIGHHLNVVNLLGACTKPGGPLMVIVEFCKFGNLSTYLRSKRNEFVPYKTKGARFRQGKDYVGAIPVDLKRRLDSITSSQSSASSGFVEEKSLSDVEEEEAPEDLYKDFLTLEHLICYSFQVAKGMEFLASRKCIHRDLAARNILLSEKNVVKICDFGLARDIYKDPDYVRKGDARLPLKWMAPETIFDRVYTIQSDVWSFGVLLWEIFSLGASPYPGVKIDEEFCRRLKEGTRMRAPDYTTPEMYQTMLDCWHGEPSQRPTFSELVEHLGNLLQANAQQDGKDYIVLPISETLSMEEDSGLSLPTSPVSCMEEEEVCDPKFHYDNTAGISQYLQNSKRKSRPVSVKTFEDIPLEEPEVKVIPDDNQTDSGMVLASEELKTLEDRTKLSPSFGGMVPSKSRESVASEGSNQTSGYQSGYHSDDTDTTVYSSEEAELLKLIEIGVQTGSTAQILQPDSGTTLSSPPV
UniProt P17948, residues 27-1338: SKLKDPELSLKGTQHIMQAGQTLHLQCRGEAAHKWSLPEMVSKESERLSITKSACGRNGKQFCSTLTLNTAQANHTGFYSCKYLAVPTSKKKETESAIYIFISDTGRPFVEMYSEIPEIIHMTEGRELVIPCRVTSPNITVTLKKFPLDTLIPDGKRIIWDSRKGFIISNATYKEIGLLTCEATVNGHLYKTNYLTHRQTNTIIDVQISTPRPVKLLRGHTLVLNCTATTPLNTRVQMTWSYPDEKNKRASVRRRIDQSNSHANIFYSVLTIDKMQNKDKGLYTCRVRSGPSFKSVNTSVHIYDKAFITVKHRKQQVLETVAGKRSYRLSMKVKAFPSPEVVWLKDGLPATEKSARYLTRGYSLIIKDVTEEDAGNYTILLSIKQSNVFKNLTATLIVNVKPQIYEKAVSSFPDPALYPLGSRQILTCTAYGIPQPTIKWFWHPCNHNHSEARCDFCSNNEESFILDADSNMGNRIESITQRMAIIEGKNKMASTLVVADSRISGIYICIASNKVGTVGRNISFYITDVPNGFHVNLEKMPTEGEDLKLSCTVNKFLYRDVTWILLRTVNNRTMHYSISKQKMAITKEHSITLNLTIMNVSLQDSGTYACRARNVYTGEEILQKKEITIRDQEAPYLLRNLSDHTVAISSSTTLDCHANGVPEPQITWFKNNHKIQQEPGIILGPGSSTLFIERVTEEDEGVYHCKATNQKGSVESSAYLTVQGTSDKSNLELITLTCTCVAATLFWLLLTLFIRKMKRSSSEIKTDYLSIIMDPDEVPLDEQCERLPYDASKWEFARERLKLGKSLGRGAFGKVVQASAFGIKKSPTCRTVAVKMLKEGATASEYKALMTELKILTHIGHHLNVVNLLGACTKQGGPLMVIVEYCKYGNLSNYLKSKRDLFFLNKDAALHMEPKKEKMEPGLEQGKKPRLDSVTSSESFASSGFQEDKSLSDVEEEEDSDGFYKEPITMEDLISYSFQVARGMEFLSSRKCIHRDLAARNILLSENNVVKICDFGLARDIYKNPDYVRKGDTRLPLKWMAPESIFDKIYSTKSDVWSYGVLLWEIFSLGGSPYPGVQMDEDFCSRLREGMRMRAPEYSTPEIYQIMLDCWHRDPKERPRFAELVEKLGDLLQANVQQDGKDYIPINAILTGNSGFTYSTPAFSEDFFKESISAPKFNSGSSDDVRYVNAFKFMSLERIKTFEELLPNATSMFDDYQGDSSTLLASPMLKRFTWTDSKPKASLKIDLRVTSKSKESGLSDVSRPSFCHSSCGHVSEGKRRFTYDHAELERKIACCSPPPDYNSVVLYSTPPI
UniProt Q12923: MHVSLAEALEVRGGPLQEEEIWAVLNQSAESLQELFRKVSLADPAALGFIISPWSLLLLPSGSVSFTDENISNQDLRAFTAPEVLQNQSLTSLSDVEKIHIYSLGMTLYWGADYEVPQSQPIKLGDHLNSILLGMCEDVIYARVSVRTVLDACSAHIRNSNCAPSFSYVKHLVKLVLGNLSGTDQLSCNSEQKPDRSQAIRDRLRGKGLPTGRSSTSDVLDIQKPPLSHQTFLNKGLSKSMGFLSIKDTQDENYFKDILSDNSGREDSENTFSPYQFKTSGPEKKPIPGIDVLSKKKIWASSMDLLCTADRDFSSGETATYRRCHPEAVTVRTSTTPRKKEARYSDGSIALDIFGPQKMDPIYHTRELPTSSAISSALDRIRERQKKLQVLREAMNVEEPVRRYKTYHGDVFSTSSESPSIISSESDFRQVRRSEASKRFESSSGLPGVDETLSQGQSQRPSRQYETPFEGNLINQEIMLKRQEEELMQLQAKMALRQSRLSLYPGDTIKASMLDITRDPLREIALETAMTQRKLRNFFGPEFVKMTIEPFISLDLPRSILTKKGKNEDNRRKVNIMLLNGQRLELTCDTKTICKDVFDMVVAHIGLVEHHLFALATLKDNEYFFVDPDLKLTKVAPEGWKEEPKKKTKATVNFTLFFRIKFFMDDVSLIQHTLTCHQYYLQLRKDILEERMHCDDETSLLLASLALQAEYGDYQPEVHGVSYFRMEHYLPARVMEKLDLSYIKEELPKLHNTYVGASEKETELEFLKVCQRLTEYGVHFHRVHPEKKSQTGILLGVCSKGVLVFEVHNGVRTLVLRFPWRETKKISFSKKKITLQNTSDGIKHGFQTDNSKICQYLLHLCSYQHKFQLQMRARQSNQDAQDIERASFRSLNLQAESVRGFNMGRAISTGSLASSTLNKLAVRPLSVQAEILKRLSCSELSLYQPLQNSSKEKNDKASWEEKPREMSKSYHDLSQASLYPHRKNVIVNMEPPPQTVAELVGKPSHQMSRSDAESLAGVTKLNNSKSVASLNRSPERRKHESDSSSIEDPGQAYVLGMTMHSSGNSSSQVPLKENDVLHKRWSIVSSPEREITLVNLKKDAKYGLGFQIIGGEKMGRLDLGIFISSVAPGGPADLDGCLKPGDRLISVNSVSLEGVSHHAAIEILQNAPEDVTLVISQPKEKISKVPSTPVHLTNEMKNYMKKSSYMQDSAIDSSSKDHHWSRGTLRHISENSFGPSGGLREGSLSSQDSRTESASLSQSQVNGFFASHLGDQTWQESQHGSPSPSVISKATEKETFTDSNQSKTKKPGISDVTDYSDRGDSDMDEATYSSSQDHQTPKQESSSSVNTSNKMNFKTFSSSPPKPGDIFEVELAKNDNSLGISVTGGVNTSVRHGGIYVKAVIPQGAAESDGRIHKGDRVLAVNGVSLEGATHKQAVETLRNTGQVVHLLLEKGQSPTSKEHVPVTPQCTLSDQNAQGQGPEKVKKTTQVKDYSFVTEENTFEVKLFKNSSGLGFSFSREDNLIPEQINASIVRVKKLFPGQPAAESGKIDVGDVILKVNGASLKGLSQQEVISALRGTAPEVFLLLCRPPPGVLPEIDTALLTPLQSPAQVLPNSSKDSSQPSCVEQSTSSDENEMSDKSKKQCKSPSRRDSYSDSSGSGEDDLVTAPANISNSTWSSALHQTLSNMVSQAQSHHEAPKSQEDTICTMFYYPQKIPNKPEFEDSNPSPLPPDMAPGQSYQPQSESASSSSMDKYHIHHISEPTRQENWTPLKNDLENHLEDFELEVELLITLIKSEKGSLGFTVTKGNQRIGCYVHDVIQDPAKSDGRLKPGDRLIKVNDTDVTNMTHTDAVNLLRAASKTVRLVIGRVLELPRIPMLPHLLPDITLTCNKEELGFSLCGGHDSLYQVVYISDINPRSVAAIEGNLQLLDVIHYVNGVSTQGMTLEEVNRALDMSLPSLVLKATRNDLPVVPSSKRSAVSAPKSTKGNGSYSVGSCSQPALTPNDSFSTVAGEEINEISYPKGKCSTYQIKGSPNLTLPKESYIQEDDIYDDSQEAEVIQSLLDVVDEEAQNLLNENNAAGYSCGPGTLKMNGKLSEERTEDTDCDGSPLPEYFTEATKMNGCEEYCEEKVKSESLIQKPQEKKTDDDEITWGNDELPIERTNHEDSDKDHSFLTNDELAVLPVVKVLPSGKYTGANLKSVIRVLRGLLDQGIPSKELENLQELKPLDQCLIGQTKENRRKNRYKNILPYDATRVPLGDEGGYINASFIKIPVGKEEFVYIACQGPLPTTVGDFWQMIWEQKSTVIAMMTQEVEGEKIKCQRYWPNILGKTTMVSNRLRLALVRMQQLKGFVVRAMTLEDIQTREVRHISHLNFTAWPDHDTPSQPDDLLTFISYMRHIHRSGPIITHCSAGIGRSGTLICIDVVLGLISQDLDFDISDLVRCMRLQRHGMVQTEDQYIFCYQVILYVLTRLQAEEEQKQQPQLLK

How the values were obtained:
[1] = biological target: T1, FLAG-Necl-4 (UniProt Q8R464); assay: co-IP; HEK293 cells co-transfected with FLAG-tagged Necl-4 (or Necl-4-ΔCP, Necl-4-ΔEC) and VEGFR1 or VEGFR2; lysates precipitated with anti-FLAG mAb (IgG as control), Western blotting
T1 sequence: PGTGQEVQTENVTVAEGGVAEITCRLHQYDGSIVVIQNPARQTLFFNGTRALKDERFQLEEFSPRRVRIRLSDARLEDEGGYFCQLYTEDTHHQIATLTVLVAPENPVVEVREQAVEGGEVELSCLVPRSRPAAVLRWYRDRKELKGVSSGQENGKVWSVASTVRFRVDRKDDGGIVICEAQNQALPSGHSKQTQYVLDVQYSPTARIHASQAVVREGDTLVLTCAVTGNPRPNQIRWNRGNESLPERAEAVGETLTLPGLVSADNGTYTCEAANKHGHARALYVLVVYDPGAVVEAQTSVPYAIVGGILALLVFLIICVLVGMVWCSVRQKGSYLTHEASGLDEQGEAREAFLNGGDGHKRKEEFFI

[2] = biological target: endogenous VEGFR2 (human (endogenous in HUVECs)) (UniProt P35968); assay: co-IP; data not shown; PTPN13 co-immunoprecipitated with VEGFR2, sparse versus confluent conditions
[3] = biological target: endogenous VEGFR2 (human (endogenous in HUVECs)) (UniProt P35968); assay: co-IP; lysates of HUVECs cultured under sparse (25% confluence) or confluent (100% confluence) conditions; precipitated with anti-VEGFR2 pAb (IgG as control), Western blotting

Molecule | binding [1] | binding [3] | further results
VEGF receptor (VEGFR) 1 (from UniProt P17948 27-1338) | binds | – | –
VEGFR2 (transfected) (from UniProt P35968 20-1356) (receptor) | binds | – | –
protein-tyrosine phosphatase, non-receptor type 13 (PTPN13) (from UniProt Q12923 1-2485) (enzyme) | – | – | binding [2]: binds
B1 | – | binds | –
B2 | – | binds | –
